Data on one compound can be found in patent US20210169077A1, “METHOD FOR IMPROVING SEED GERMINATION AND/OR PLANT TOLERANCE TO ENVIRONMENTAL STRESS” (DANSTAR FERMENT AG, priority 2017, published 2021).

“And” between values parts separate entries of the source, which are not always exact repeats. Equal values may be shown once.

The series has as its system corn plant Variety 1. Nature of the series: Seed weight after treatment with glycine-betaine compared to non-treated seed weight. In kind it is in vivo. The note with it: corn Variety 1; Rep 1-3.

Turning to `C[N+](C)(C)CC(=O)[O-]` [GB, N,N,N-trimethylglycine], the “Seed weight, Mean GB (plants treated with GB)” value was 532.96 g and 317.39 g and 363.11 g.
